# Source: PubChem BioAssay AID1508600 (Functional Genomics Laboratory (NCATS/FGL), 2020)
# Screen size: about 53,000 sequences; about 3,700 (7%) were called active.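 The calls were made as follows: active = gene knockdowns whose robust z-score for IL-1 alpha signal is at least 2 or at most -2, so actives lie on both sides; inactive = the rest.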 This is one part of the list.
# Assay: Components of the Cytosolic LPS Sensing Pathway: Gene Identification via Genome-wide siRNA Screen;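 also: robust z of the log signal after scaling to non-targeting control siRNA wells of the plate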
# Details: RAW264.7 macrophages, IL-1a HTRF, actives lie on both sides, screened at 100 nM (by protocol), cells primed 5 h with Pam3CSK4 first
# Method in brief: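 IL-1a HTRF of supernatants after 24 hour LipidA transfection of Pam3CSK4-primed (5 hours) RAW264.7 cells, 48h post-siRNA transfection (100 nM). Scores: percent of plate negative-control median, then log-based robust z-score.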
row,Sequence,z-score
1,CGUGAAGUUGCAUGUAUUUTT against Rabepk,inactive: 0.0478
2,GGGAAAGGGUUUUUUAUUCTT against Slc1a1,inactive: -0.177
3,GGAGAGAGUUGUUCAGUUATT against Olfr619,inactive: -0.31
4,GGUAUUAAGUUCCUGUAAUTT against Ahcyl2,inactive: -1.62
5,GGGUAUUCCUUCCAACACCTT against Lrrc4,active: -2.14
6,CCCACCACAAGCUAAUACATT against Ubac1,inactive: -0.0826
7,GGAUGAUAUGCUGUUAGUGTT against Il17rc,inactive: -1.59
8,GGAUAAGCAUGAUGACAGUTT against Wbp11,inactive: -1.74
9,GGUCUCCCUUCAGUAUGAGTT against Cela3b,inactive: -0.602
10,GGGCUACUAUUCAUUGAUCTT against 4930550L24Rik,inactive: 1.94
11,GGAUCAGAUUCUGAAGAGATT against Vcl,inactive: 0.0133
12,GGACUUCUUAUGGAAAAGATT against Xlr5c,inactive: -0.942
13,GGGAGCUAAUGAGCAAGGATT against Galk1,active: 2.5
14,GCACCAUUCUAGGAGUCAUTT against Lonp2,inactive: -0.504
15,GGACCCUUAUGACCCUCAUTT against Irf3,inactive: -0.49
16,GCUAAGAUGAUGUCCUUGUTT against Ifi27,inactive: -0.655
17,GGAGCACUUAGAAAUGUCCTT against Olfr342,inactive: -0.174
18,GCCUUAGGAUGCAUCUUGUTT against Smarcad1,inactive: 0.229
19,GGGAAAGACUCAAGGUCCUTT against Olfr586,inactive: 0.774
20,GCUGGCGGAGCAAACUCAATT against Foxd3,inactive: 0.756
21,GGGAAUUUAUAGCUUCAGCTT against Cbln2,inactive: -0.385
22,GGCUCAAGAAAUUCUGGACTT against Noxo1,inactive: 1.02

row,Sequence,z-score
1,GCUCAGAAUGCAGGUCGUATT against Scgb2b2,inactive: -0.276
2,GGCUUCUUCACUGAAAUUCTT against 1700074P13Rik,inactive: -1.1
3,GGAAAGUGUUCCGAAUAUUTT against Zc3hc1,inactive: -0.12
4,GGAAGAUAACUCCUAUGUCTT against Acad12,inactive: -1.72
5,GGAAACCUGUGUAUGAUUGTT against Olfr1022,inactive: -1.63
6,GGGUUUGAGAAUUUGAAGCTT against Dscaml1,inactive: -0.539
7,GGGUCAGAUUGCUAUCCUCTT against Mfsd5,inactive: 0.256
8,GGAUUCUGAAAUCAGUGCUTT against Capn8,inactive: 1.52
9,GGACAUUUUUCAUUUGUGATT against Zfhx4,inactive: 1.28
10,GCUGACUAAGGCUUGUAAUTT against Hrnr,inactive: -0.194
11,GGCAAUUACCCACCCUGUUTT against Mfsd6,active: -2.57
12,GCUUCGCUUUUAGGUAUAUTT against Rpl27,inactive: 0.466
13,GGCCCUCACAAUGAAUAUGTT against Efs,inactive: -0.115
14,GCCUCUCUGGUGAACUUAGTT against Ccar1,inactive: 0.0406
15,GGUGAAGUCUCCAAAGAGUTT against Ms4a4d,inactive: 0.539
16,GGAUUGUGUUUGAGUCUCATT against Phyhd1,inactive: -0.934
17,GGAAACAGCCCACUGGAAATT against Ndufs2,inactive: 1.07
18,GGUGUUAGCUUCUCAAAAUTT against Cltrn,inactive: 0.497
19,GCUAGAAAGAGUUAAUCUATT against Wdr11,inactive: -0.616
20,CGAGCUAUACGGAAAAAAATT against Efcab12,inactive: -1.03
21,GGAAUCAUCUUCAUUGACCTT against Agpat1,inactive: 0.0827
22,GGAAAAAUUGAAGUUGAUCTT against Iqcj,inactive: -1.35

row,Sequence,z-score
1,GGAACUCCUGACUCUCAGATT against Htra2,inactive: -1.19
2,CCGUCUUUGUGCUAUGCUGTT against Sstr4,inactive: 1.56
3,CCCUCUAAAGCAUGAGUGUTT against Tspan32,inactive: 0.624
4,GGAACAAAGUGUCAGAGGATT against Hcls1,inactive: -0.198
5,GGCAGAUACUUCUCUGGAGTT against Sdc4,inactive: -0.498
6,GGAAGGACUCCUGUACAUCTT against Cyp4f18,inactive: -0.398
7,GGUCCAAGCCUUAAUAUAUTT against Aadac,inactive: 0.486
8,CGACAUGGAACACAAGACCTT against Map3k11,inactive: 0.289
9,GGUGUAUGUGCUGAAGCGATT against Ctdspl,inactive: -0.526
10,GGAACUUCAGUGUUGCCUCTT against Olfr257,inactive: 0.0752
11,CCUUCCGCCUAUCCUAUUGTT against Olfr52,inactive: 0.791
12,GGUGACAUCUUCAUUGGCCTT against Actr1a,inactive: 1.13
13,GGGAAGAGAAAACUGGACUTT against Xrcc1,active: 3.01
14,GCUGCCGAUUGAUAGCUUCTT against Pik3ca,inactive: 0.248
15,GCCCAAUAAAAUUGAAGGGTT against Pmis2,inactive: -0.163
16,GGUGUUUGAUGUAACUAAATT against Dgke,inactive: -0.424
17,GAGUGGUUUCUAAUUCGUATT against A830031A19Rik,active: 2.56
18,GGACGGUAGCCAUAUUAAUTT against Spink2,inactive: -0.385
19,GCCGAUUUGCUAUCUCAUATT against Tnf,inactive: -1.12
20,CUAAUGUCUGUGGUCAAAUTT against Trim6,inactive: -0.0124
21,GCAACCUGCUAUUGGCACUTT against Tm6sf2,inactive: 0.803
22,GGAUGAGGCACAGUUGUGUTT against Trim10,inactive: 0.131

row,Sequence,z-score
1,GGUUAAGUUACUAACCCAGTT against 4931406C07Rik,inactive: 1.01
2,GGAUAAACAUCAUCUAUGGTT against Olfr603,inactive: -1.7
3,GGAAUAUGAGAAAAUGAGCTT against Ctsc,inactive: 0.239
4,GCAACAGAAGAUAACUCAATT against Dnajc28,inactive: 1.07
5,CGAACAGAGUCUAAUCUCATT against Ptpn1,inactive: 1.69
6,GGCUUUGAAAGUUACUACUTT against Zfp609,inactive: 1.22
7,CGAGUGCAUGAAAUCUUCATT against Polr2a,inactive: -1.82
8,GCUCUAGAAGCGUACAGGCTT against Pole3,inactive: -0.492
9,GGGCAAACAACAUCGAUGGTT against Wdsub1,inactive: -1.76
10,GGCUCCAUCGAAAGGUAAATT against Lyar,inactive: -0.803
11,GGACCAAGACCGAUGUGUATT against Ackr4,inactive: 0.398
12,GGUGUCUUAAAGCUGAAAUTT against E2f5,inactive: -0.111
13,CCUCAGCUAAUGAAACUUCTT against Utp14b,inactive: -0.902
14,GGAAAGUGAUGUCACAAAATT against G3bp1,inactive: 1.31
15,GGAAAGAUGUGGAAGUAAATT against Erc1,inactive: -0.977
16,GCAUUCAAGCAACCACGAATT against Ptdss1,inactive: -0.926
17,GGAAACCCAGAGCAGCAGATT against Tdg,inactive: -1.01
18,CCUCAUCCUUAGUUGUUUUTT against Ift88,inactive: -0.15
19,CCCGAAGCCUUAGAUAUAATT against Tns4,inactive: -0.15
20,GGAUAUCACUGAAGAGAGCTT against Ndufaf3,inactive: -0.127
21,GGCGGUGGAGGUGAUAUAUTT against Dennd6a,active: -2.01
22,GGAAAAAGAAAAACCAGCATT against Sytl4,inactive: -0.959

# Taken from above:
# z-score with GGAAAAAGAAAAACCAGCATT against Sytl4 is entered as inactive: -0.959
# z-score with GGACCAAGACCGAUGUGUATT against Ackr4 is entered as inactive: 0.398
# z-score with GCUCUAGAAGCGUACAGGCTT against Pole3 is entered as inactive: -0.492
# z-score with GGAAACCCAGAGCAGCAGATT against Tdg is entered as inactive: -1.01
# z-score with GGUUAAGUUACUAACCCAGTT against 4931406C07Rik is entered as inactive: 1.01
# z-score with GCAACAGAAGAUAACUCAATT against Dnajc28 is entered as inactive: 1.07

# 2 entries from above, tab-delimited:
row	Sequence	z-score
12	GGUGUCUUAAAGCUGAAAUTT against E2f5	inactive: -0.111
13	CCUCAGCUAAUGAAACUUCTT against Utp14b	inactive: -0.902

# Later entries:

row,Sequence,z-score
1,CUACAGUCGCAUCAACUAUTT against Tepp,inactive: 1.34
2,GGGAUGAACUCAACUGGAATT against Lrpap1,inactive: -0.332
3,GGACCAACUACACACUACGTT against Grik5,inactive: 0.334
4,GGGAUUCUACUGUGUGUGATT against Gpr82,inactive: -0.532
5,CGAUUUCCCAAGUUAUUACTT against Nxf1,active: -2.26
6,GGUAGCUUACAAACCAUCATT against Tab1,inactive: -1.6
7,GAGCAAGAUCCAGCCCUAUTT against Usp17lc,inactive: 1.43
8,GGUAUUGGGCCAUUGGUUGTT against Mapkapk3,inactive: 0.705
9,GGAACAAAUGCCACUAACCTT against Pde5a,inactive: -0.566
10,GGAUGUGCUCGGUUGGAAGTT against Mtag2,inactive: -1.11
11,GGAUAAGAGUGAUGAAGCCTT against Dgcr2,inactive: 0.504
12,GGCAAGGCUAACUGACCUGTT against Cxcl2,inactive: 0.37
13,GGUUUUACUGUAGACCUUUTT against Hnrnpa1,inactive: 0.542
14,GAUUUUCUGUGUCCAUCAATT against Olfr726,inactive: -0.548
15,GGACACAGAUUUCACUAUATT against Arfrp1,inactive: 0.67
16,GCAACAAAUGGACUUUCCATT against Stard13,inactive: 0.19
17,GGGAGAUGAUAAUUAAGUUTT against Aadacl2fm1,inactive: 0.58
18,GGAAGUUUCAGUCAAGAAGTT against Rrp1b,inactive: 0.759
19,GGAUGCAGAUGUACAACUCTT against Slc25a28,active: 2.17
